In patent US20220133662A1, “ORAL DRUG, ADJUVANT CANCER THERAPY, AND PET THERAPEUTIC DIET” (priority 2019, published 2022):
At least one compound was matched to its structure with a doubt left. Some results were stated once for a whole list of compounds, not compound by compound.

How the values were obtained:
Hela cells = experiment: Survival rate of Hela cells (MTT), ketone donors alone or with cisplatin; type: cell-based
COS7 cells = experiment: Survival rate of COS7 cells (MTT), ketone donors alone or with cisplatin; type: cell-based

Structure (SMILES): C[C@@H](O)CCOC(=O)C[C@@H](C)O [ketone ester, 3-hydroxybutyl-3-hydroxybutyric acid]
- adjuvant effect on toxicity caused by cisplatin (Hela cells; 1 mM ketone donor with 0.3-3 μM of cisplatin, versus untreated group): significantly promoted the toxic effects due to cisplatin
- concentration up to which not toxic (survival rate of Hela cells) (Hela cells; ketone donor alone): ≥ 1000 µM
- adjuvant effect on toxicity caused by cisplatin (COS7 cells; 1 mM ketone donor added with cisplatin, versus untreated group): significantly promoted the toxic effect caused by cisplatin
- concentration up to which not toxic (survival rate of COS7 cells) (COS7 cells; 24 hours, ketone donor alone): ≥ 1000 µM
